# Some of the results follow. These are further read-outs of the screen, such as a control signal, another cell line or another target. No call is given for them. The list favours compounds with an active or inconclusive main result. Words in brackets tell the shape of the fitted curve; partial curves, single points and poor fits give uncertain potencies.
# Assay: qHTS Assay for Lipid Storage Modulators in Drosophila S3 Cells;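 on cell number change: cells counted by Cell Tracker Red CMTPX staining in the red channel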
# Details: BODIPY lipid droplet fluorescence, 18-24 h; for cell number change: measured here: cell count max response, cells fed with added oleic acid
# Method in brief: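 Drosophila S3 cells loaded with oleic acid (400 uM, as added) and compounds at several concentrations; lipid droplets imaged by 488-nm laser-scanning cytometry, 500–530 nm intensity and object ratio to cell channel. Percent activity normalized to 20 uM Triacsin C.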
# [1] = measured here: lipid fluorescence (Fed channel) AC50, cells fed with added oleic acid
# [2] = measured here: cell number channel AC50, cells fed with added oleic acid
SMILES,cell number change [%],AC50 [1],AC50 [2]
O=C(NCc1nnc(SCC(=O)N2CCCCC2)o1)c1c(F)cccc1F,-26.4,"7.94 µM [falling, partial curve]",
COc1cc(C#Cc2c(-c3cncn3C)n(C)c3ccc(-c4cnc(OC)nc4)cc23)cc(OC)c1,-70.5,"0.411 µM [rising, partial curve]","5.8 µM [falling, single point]"
CCCN(C(=O)c1cc(C)ccc1C)c1c(N)n(Cc2ccccc2)c(=O)[nH]c1=O,-68.3,"0.291 µM [rising, partial curve, poor fit]","29.1 µM [falling, single point]"
COc1cc2cc(C(c3nnnn3C3CCCCC3)N(C)C3CCCCC3)c(=O)[nH]c2cc1OC (centres undefined),-58.9,"18.4 µM [falling, single point]","29.1 µM [falling, single point]"
COc1ccc(NC(=O)c2cn(C)c(=O)c3cc(OC)c(OC)cc23)c(OC)c1,,"0.13 µM [rising, full curve, poor fit]",
Cc1cccc(Nc2nc(N)nc(CN3CCN(Cc4ccc5c(c4)OCO5)CC3)n2)c1,-16.7,"5.8 µM [rising, partial curve, poor fit]",
CCc1ccc(-c2cc(C)no2)cc1S(=O)(=O)Nc1cc(C)on1,26.9,,
O=C(COC(=O)C1CC2C=CC1C2)Nc1ccccc1 (centres undefined),1.71,"6.51 µM [rising, partial curve, poor fit]",
CC(=O)Nc1ccc(C(=O)OCC(=O)N2CCC(Cc3ccccc3)CC2)cc1,,"29.1 µM [falling, single point]",
CC1CC(C)CN(C(=O)COC(=O)c2ccc([N+](=O)[O-])o2)C1 (centres undefined),17,"0.0411 µM [rising, full curve, poor fit]",
COc1ccc(Nc2nc(N)c(C(=O)c3ccc(OC)cc3)s2)cc1,16.2,,
CC1Cc2ccccc2N1C(=O)C1CCN(S(=O)(=O)Cc2ccccc2)CC1 (centres undefined),-7.05,,
CC(C)[C@H](NC(=O)c1ccccc1Cl)C(=O)OCC(=O)NC(=O)NC1CCCC1,-30.5,,"0.00461 µM [falling, full curve, poor fit]"
Cc1ccc2cccc(OCC(=O)NCc3ccco3)c2n1,-30,"11.6 µM [falling, single point]",
CNC(=S)N(C)[C@H]1c2c(ccc3ccccc23)OC[C@H]1CO,,"0.146 µM [falling, full curve, poor fit]",
COc1cccc(NC(=O)c2nnn(CCc3ccccc3)c2N)c1,-1.46,"13 µM [rising, single point]",

# Laid out differently: entries from further up.
SMILES	cell number change [%]	AC50 [1]	AC50 [2]
O=C(COC(=O)C1CC2C=CC1C2)Nc1ccccc1 (centres undefined)	1.71	6.51 µM [rising, partial curve, poor fit]	
CC(=O)Nc1ccc(C(=O)OCC(=O)N2CCC(Cc3ccccc3)CC2)cc1		29.1 µM [falling, single point]	
